Measured data: PubChem BioAssay AID624150 (Cancer Research UK Cambridge, 2012)
In all, the deposit lists 331 reagents; this is a random part of them. 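Each arm had three replicate z-scores, but only the first replicate is printed; higher values mean more differentiation marker per cell.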 Not all columns of the deposit are shown. Reagent sequences are not shown.

Assay: 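Find chromatin regulators that change keratinocyte differentiation across several stimuli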 (primary screen)
System: primary human epidermal keratinocytes
Reagents: siRNA pool against human genes, 1-2 µM siRNA in 20 µl nucleofection
Duration: 72 h after transfection plus 48 h differentiation (about 5 days)
Challenge: five arms for 48 h: vehicle, AG1478 10 µM, BMP2/7 200 ng/ml, both together, or 10% serum
Detection: 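Per-cell amount of a differentiation marker read by infrared scanning of the plate, given as a z-score within each plate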
Scale: z-score, vehicle: higher = more differentiation marker per cell

Against SUV39H1 (SUV39H1 histone lysine methyltransferase) the deposit lists z-score, vehicle -0.288.
Depletion of PHF7 (PHD finger protein 7) gave: z-score, vehicle -0.595.
After knock-down of CHD9 (chromodomain helicase DNA binding protein 9) the results were z-score, vehicle 0.0318.
For PHF1 (PHD finger protein 1) the deposit lists z-score, vehicle -1.51.
Depletion of HDAC3 (histone deacetylase 3) gave: z-score, vehicle 0.704.
Depletion of SIRT2 (sirtuin 2) gave: z-score, vehicle 0.102.
KDM4D (lysine demethylase 4D) gave z-score, vehicle 2.09.
After knock-down of JMJD4 (jumonji domain containing 4), the record shows z-score, vehicle 1.19.
Silencing of BRPF3 (bromodomain and PHD finger containing 3) gave: z-score, vehicle 2.14.
After knock-down of HDAC4 (histone deacetylase 4), the record shows z-score, vehicle 0.379.
For DPF1 (double PHD fingers 1), the entry reads z-score, vehicle 1.56.

Look-ups from above:
JMJD4 (jumonji domain containing 4), z-score, vehicle: 1.19
For “z-score, vehicle”, SUV39H1 (SUV39H1 histone lysine methyltransferase) shows -0.288

Additional reagents:
After knock-down of DHX9 (DExH-box helicase 9), the screen gave z-score, vehicle -0.367.
After knock-down of FBXL19 (F-box and leucine rich repeat protein 19), the record shows z-score, vehicle 1.15.
SPEN (spen family transcriptional repressor) scored z-score, vehicle -1.43.
Depletion of PHF13 (PHD finger protein 13) resulted in: z-score, vehicle 0.342.
Silencing of TAF3 (TATA-box binding protein associated factor 3) resulted in: z-score, vehicle -0.177.
For BRD2 (bromodomain containing 2), the entry reads z-score, vehicle 1.21.
Against TDRD5 (tudor domain containing 5), the values are z-score, vehicle 0.367.
For PRMT5 (protein arginine methyltransferase 5), the values are z-score, vehicle -1.03.
